# PubChem BioAssay AID504791 | Drosophila RNAi Screening Center, 2011
# Test: 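Factors in Argonaute-based small RNA production and activity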 (primary screen)
# System: Drosophila S2-derived reporter cells
# Knock-down reagent: long dsRNA against Drosophila genes, about 150-250 ng dsRNA per well (siRNA assay); about 80-120 ng (miRNA assay)
# Duration: about 5 days (siRNA assay); about 4 days (miRNA assay)
# Challenge: copper sulfate induction of reporters: 25 µM (siRNA assay); 200 mM stated (miRNA assay), 1-2 days before reading
# Measurement: 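Per-well ratio of Renilla over firefly light, expressed relative to that plate's average ratio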
# Rule for the call: 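First-pass picks had plate-scaled ratios over 1.5 for the siRNA assay, over 1.6 for the miRNA assay, or under 0.6; two distinct dsRNAs had to score alike on retest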
# The screen tested about 23,000 reagents; this is a random part of those with a known target gene and a result. In the full data, 199 (0.86%) were called active. 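Plate-scaled ratios behind the calls are not deposited; printed light signals are raw; many rows marked increased or decreased are still called inactive.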 Names joined by + are all predicted targets of the reagent. Not given: the direction of the score.
The opening 9 entries, ahead of the listing:
Target gene,dsRNA,stable siRNA reporter change,miRNA reporter change,"stable assay Renilla, run 1 (luminescence)","stable assay firefly, run 1 (luminescence)",Call
Clamp (Chromatin-linked adaptor for MSL proteins),DRSC03718,,,9005,2.51e5,inactive
Clamp (Chromatin-linked adaptor for MSL proteins),DRSC21682,,,8807,3.97e5,inactive
CG17574,DRSC06681,,,5176,4.58e5,inactive
Vajk1,DRSC01882,,,8054,5.72e5,inactive
CG5961,DRSC15927,,,7510,4.09e5,inactive
loj (logjam),DRSC09791,,,7360,4.07e5,inactive
Tsp66E (Tetraspanin 66E),DRSC09683,,,6568,4.07e5,inactive
slf (schlaff),DRSC00583,,,7863,4.52e5,inactive
beat-IIa (beaten path IIa),DRSC14813,,,7010,3.08e5,inactive

The listing, repeating the preview:
Target gene,dsRNA,stable siRNA reporter change,miRNA reporter change,"stable assay Renilla, run 1 (luminescence)","stable assay firefly, run 1 (luminescence)",Call
Clamp (Chromatin-linked adaptor for MSL proteins),DRSC03718,,,9005,2.51e5,inactive
Clamp (Chromatin-linked adaptor for MSL proteins),DRSC21682,,,8807,3.97e5,inactive
CG17574,DRSC06681,,,5176,4.58e5,inactive
Vajk1,DRSC01882,,,8054,5.72e5,inactive
CG5961,DRSC15927,,,7510,4.09e5,inactive
loj (logjam),DRSC09791,,,7360,4.07e5,inactive
Tsp66E (Tetraspanin 66E),DRSC09683,,,6568,4.07e5,inactive
slf (schlaff),DRSC00583,,,7863,4.52e5,inactive
beat-IIa (beaten path IIa),DRSC14813,,,7010,3.08e5,inactive
beat-IIa (beaten path IIa),DRSC14814,,,7496,3.91e5,inactive
CG9727,DRSC12585,,,7364,3.72e5,inactive
CR12798 (pseudo),DRSC21078,,,6086,5.55e5,inactive
Cad89D (Cadherin 89D),DRSC15022,,,8574,4.72e5,inactive
Ugt36E1 (UDP-glycosyltransferase family 36 member E1),DRSC02599,,,8064,1.96e6,inactive
GLaz (Glial Lazarillo),DRSC07431,,,6568,4.15e5,inactive
wdb (widerborst),DRSC14163,,,6928,5.36e5,inactive
blo (bloated),DRSC05937,,,7858,4.09e5,inactive
DNAlig1 (DNA ligase 1),DRSC04518,,,8901,1.58e6,inactive
Alp9 (Alkaline phosphatase 9),DRSC10486,,,6826,4.56e5,inactive
CG18284,DRSC02661,,,6371,7.51e5,inactive
CG18284,DRSC20756,,,4679,3.55e5,inactive
Ehbp1 (Eps15 homology domain containing protein-binding protein 1),DRSC06561,,,11618,3.59e5,inactive
Pph13 (PvuII-PstI homology 13),DRSC00775,,,19706,2.14e5,inactive
Pph13 (PvuII-PstI homology 13),DRSC23162,,,5163,4.47e5,inactive
lncRNA:CR31044 (long non-coding RNA::CR31044),DRSC22451,,,3896,3.72e5,inactive
CG10376,DRSC02049,,,6759,1.08e6,inactive
CG14454,DRSC11711,reporter ratio raised past the hit cutoff,,9821,3.17e5,inactive
Rheb (Ras homolog enriched in brain),DRSC12148,,,6200,4.17e5,inactive
Rala (Ras-like protein A),DRSC18703,,,6052,4.84e5,inactive
Pgls (6-phosphogluconolactonase),DRSC19769,,,4780,3.74e5,inactive
MstProx,DRSC12458,,,6135,3.66e5,inactive
MstProx,DRSC12601,,,7348,4.41e5,inactive
CG11523,DRSC11669,,,10552,3.22e5,inactive
Doc2 (Dorsocross2),DRSC22716,,,5315,4.96e5,inactive
CG42564,DRSC12518,,,7243,4.25e5,inactive
mub (mushroom-body expressed),DRSC11896,,,9187,3.61e5,inactive
CkIIalpha (casein kinase IIalpha),DRSC11946,,reporter ratio lowered past the hit cutoff,5408,4.66e5,inactive
ced-6,DRSC07591,,,4367,5.15e5,inactive
CG30495,DRSC06703,,,7130,3.32e5,inactive
CG14551,DRSC14894,,,5928,2.55e5,inactive
CG9447,DRSC05008,,,7402,4.69e5,inactive
CG1801,DRSC20556,,,7662,6.75e5,inactive
Cyp6a13 (Cytochrome P450 6a13),DRSC07375,,,7665,4.69e5,inactive
CG12362,DRSC09884,,,6847,5.50e5,inactive
Usp47 (Ubiquitin specific protease 47),DRSC11313,,,8408,5.02e5,inactive
COX4L (Cytochrome c oxidase subunit 4-like),DRSC04841,,,5480,3.13e5,inactive
CG6012,DRSC02921,,,7347,3.91e5,inactive
CG43861 + CG12508 (retired record),DRSC02170,,,7322,3.90e5,inactive
CR31292 (pseudo),DRSC13120,,,6035,4.79e5,inactive
CG4461,DRSC10423,,,5610,4.23e5,inactive
mtd (mustard),DRSC12131,,,7471,3.71e5,inactive
mtd (mustard),DRSC12380,,,7346,4.09e5,inactive
mtd (mustard),DRSC12381,,,7639,3.83e5,inactive
CG1571,DRSC18068,,,6515,4.40e5,inactive
CG13229,DRSC06349,,,6812,5.15e5,inactive
CG6901,DRSC16129,,,6950,3.92e5,inactive
CG12520,DRSC09892,,,5655,3.20e5,inactive
Acp36DE (Accessory gland protein 36DE),DRSC01860,,,7383,4.08e5,inactive
spn-B (spindle B),DRSC17063,,,6883,4.73e5,inactive
Dd (Dullard),DRSC20539,,,9410,5.84e5,inactive
Hcf (Host cell factor),DRSC17143,,,7703,4.69e5,inactive
snRNP-U1-70K (small ribonucleoprotein particle U1 subunit 70K),DRSC03612,,reporter ratio raised past the hit cutoff,4731,4.03e5,active
snRNP-U1-70K (small ribonucleoprotein particle U1 subunit 70K),DRSC22071,reporter ratio raised past the hit cutoff,reporter ratio raised past the hit cutoff,22201,4.88e5,active
snRNP-U1-70K (small ribonucleoprotein particle U1 subunit 70K),DRSC28803,,reporter ratio raised past the hit cutoff,,,active
Dhpr (Dihydropteridine reductase),DRSC11135,,,6258,5.08e5,inactive
Fas2 (Fasciclin 2),DRSC17308,,,6154,3.13e5,inactive
Fas2 (Fasciclin 2),DRSC17309,,,7243,3.69e5,inactive
Fas2 (Fasciclin 2),DRSC18664,,,7505,4.61e5,inactive
Or49a (Odorant receptor 49a),DRSC07493,,,5983,2.86e5,inactive
CG15357,DRSC00387,,,7150,4.32e5,inactive
ChT (Choline transporter),DRSC16296,,,8752,4.41e5,inactive
Panx (Panoramix),DRSC04563,,,6474,3.86e5,inactive
CG4631,DRSC02766,,,5043,4.47e5,inactive
CG4631,DRSC22194,,,9474,5.78e5,inactive
CG1265,DRSC08288,,,6495,3.62e5,inactive
"ATPsynCF6L (ATP synthase, coupling factor 6-like)",DRSC08232,,,6311,4.34e5,inactive
CG33281,DRSC00421,,,7034,3.34e5,inactive
AMPKalpha (AMP-activated protein kinase alpha subunit),DRSC18714,,,9703,4.29e5,inactive
AMPKalpha (AMP-activated protein kinase alpha subunit),DRSC28055,,reporter ratio raised past the hit cutoff,,,active
Elp5 (Elongator complex protein 5),DRSC08547,,,5779,3.50e5,inactive
CG31103,DRSC22324,,,9481,5.00e5,inactive
gcl (germ cell-less),DRSC07623,,,8662,5.40e5,inactive
CG17300,DRSC10260,,,5931,4.93e5,inactive
